Source: patent publication US20260078416A1, “ORTHOGONAL METABOLIC FRAMEWORK FOR ONE-CARBON UTILIZATION” (Mojia Biotech Pte. Ltd., priority 2021, published 2026)
For part of these data: At least one read-out could not be matched to a standard name with certainty. Some entries share one result that the patent states for a list of compounds.

Columns and labels:
[1] = system: glycerate production from glycolaldehyde and formate; assay: HACS screening with glycolaldehyde and formate (glycerate productivity); assay type: cell-based, E. coli; details: 5 mM glycolaldehyde and 20 mM formate, first round
[2] = system: 2-hydroxybutyric acid production from propionaldehyde and formate; assay: HACS screening with propionaldehyde and formate (2HB productivity); assay type: cell-based, E. coli; details: 5 mM propionaldehyde and 20 mM formate, first round
[3] = In vitro kinetic assay of purified HACS variants, coupled with CaAbfT formyl-CoA generation; substrate formaldehyde; assay type: biochemical
Protocol: (§1) The kinetic assay was performed with a coupled reaction providing formyl-CoA from formate catalyzed by CoA transferase CaAbfT using acetyl-CoA as a CoA donor.
(§2) In vitro kinetic assay was comprised of 100 mM KPi pH 6.9, 10 mM MgCl2, 0.15 mM TPP, 2 mM acetyl-CoA, 1 μM CaAbfT, 0.25 μM HACS variants, and 20 mM sodium formate. Reactions were incubated at room temperature for 3 min to convert formate to formyl-CoA, and then specific concentration of aldehyde (specifically acetaldehyde or propionaldehyde here) was added to the reaction. After incubating another 3 min, 1/20 of the reaction volume of 10 M NaOH solution was added to terminate the reactions. After 30 min hydrolysis, 1/20 of the reaction volume of 10 N H2SO4 was added to neutralize the pH. Samples were centrifuged at 20817×g for 15 minutes and the supernatant analyzed by GC-MS as described below.
(§3) For this analysis, 0.15 of the reaction volume of internal standard methyl succinate was added to the samples. The resulting sample was extracted into 4 mL ethyl acetate by vigorous vortexing for 20 min. […] Samples were analyzed by GC (1 μL injection with a 20:1 split ratio) using helium as the carrier gas at a flowrate of 1.5 mL/min and the following temperature profile: initial 90° C. for 3 min; ramp at 15° C./min to 170° C.; ramp at 20° C./min to 300° C. and hold for 8 min. […]

[4] = system: glycolate production from formaldehyde; assay: High throughput resting-cell screening of first round HACS variants co-expressed with LmACR; assay type: cell-based, E. coli; details: 5 mM formaldehyde, 3 hours, vs RuHACL
Source text: We used glycolic acid (glycolate) productivity per cell density (uM glycolate/OD600) as indicator of HACS activity. Glycolate can be produced from formaldehyde as sole carbon source in the presence of active HACS variant and acyl-CoA reductase from Listeria monocytogenes (LmACR) (FIG. 20A). LmACR is shown to be capable of catalyzing oxidation reaction from formaldehyde to formyl-CoA (Chou, A., et al. Nat. Chem. Biol. 15:900-906 (2019)). HACS condenses formaldehyde and formyl-CoA to form glycolyl-CoA, which can then be hydrolyzed to glycolate via native thioesterase activities (FIG. 20A).
To prototype glycolate production pathway from formaldehyde in vivo, we constructed vectors overexpress various HACS candidates and LmACR, with both under control of the IPTG-inducible T7 promoter in pCDFDuet-1 and pETDuet-1, respectively (FIG. 20C). […]
Cells from the above pre-cultures were then centrifuged (4000 rpm, 22° C.), washed with the above minimal media without any carbon source, and resuspended with 1 mL of above minimal media containing indicated amounts of carbon source. […] After incubation at 30° C. for 3 hours, the cells were pelleted by centrifugation and the supernatant analyzed by HPLC or GC-MS as described below. […] The soluble cell lysates obtained from the supernatant were analyzed using SDS-PAGE. […]

[5] = In vitro kinetic assay of purified HACS variants; substrate propionaldehyde; assay type: biochemical
Protocol: as §1, §2, §3

[6] = In vitro kinetic assay of purified HACS variants; substrate acetaldehyde; assay type: biochemical
Protocol: as §1, §2, §3

[7] = In vitro kinetic assay of purified HACS variants; substrate acetone; assay type: biochemical
Protocol: as §1, §2, §3

B1: JGI20: HACS variant; GenBank PWB41796.1 (protein)
chain: MGQITGAQIVARALKQQGVEYMFGIVGIPVIPIAMFAQREGIKFYGFRNEQSASYAAAAVGYLTGRPGVCLGVSGPGMIHGVAGMANAWSNCWPMILIGGANDSYQNGQGAFQEAPQIEAARPFAKYCARPDSLARLPFYVEQAVRTSIYGRPGAVYLDLPGDIITGAMEEEDVHFPPRCPDAPRMMAPQESIDAAMAALKSAERPLVIVGKGAAYSRAENEVREFLETTQLPYLASPMGKGVMPDDHPLSIAPARSAALLGADVILLMGARLNWMMHFGHPPRFDPKVRVIQMDISAEEIGTNVPTEVALVGDAKAITTQLNASLKQQPWQYPSETTWWTGLRKKIDENGATVAEMMADESVPMSYYRVYREIRDLIPNDAIIQNEGASTMDIGRTLMPNFLPRHRLDAGSFGTMGVGLGQAIAAAAVHPDKHVFCIEGDSAFGFSGMEVETAARYGMKNITFIIINNNGIGGGPDTLDPTRVPPSAYTPNAHYEKMAEIYGGKGYFVTEPSQLRPALEEAIKADKPAIVNIMISATSQRKPQQFAWLTR
- glycerate productivity compared to other HACS variants [1]: more than 2 fold
- 2HB productivity compared to other HACS variants [2]: more than 3 fold
- Kcat, app/Km, app [3]: 440 M⁻¹ s⁻¹
- improvement in glycolate productivity [4]: more than 3 fold
- Kcat, app/Km, app [5]: 41000 M⁻¹ s⁻¹
- Kcat, app/Km, app [6]: 42000 M⁻¹ s⁻¹

B2: JGI15: HACS variant; GenBank HAK63664.1 (protein)
chain: MAKSEGKVNGATLMARALQQQGVQYMFGIVGFPVIPIAIAAQREGITYIGMRNEQSASYAAQAASYLTGRPQACLVVSGPGVVHALAGLANAQVNCWPMLLIGGASAIEQNGMGAFQEERQVLLASPLCKYAHQVERPERIPYYVEQAVRSALFGRPGAAYLDMPDDVILGEVEEAAVRPAATVGEPPRSLAPQENIEAALDALQSAKRPLVIVGKGMAWSRAENEVRQFIERTRLPFLATPMGKGVMPDDHPLSVGGARSHALQEADLVFLLGARFNWILHFGLPPRYSKDVRVIQLDLSAEEIGNNRQAEVALVGDGKAIVGQLNQALSSRQWFYPAETPWREAIAAKIAGNQAAVAPMIADNTSPMNYYRVYRDIAARLPRNAIIVGEGANTMDIGRTQMPNFEPRSRLDAGSYGTMGIGLGFAVAAAAVHPGRPVIAVQGDSAFGFSGMEFETAARYGMPIKVIILNNGGIGMGSPAPRDGQPGMPHALSHDARYERIAEAFGGAGFYVTDSAELGPALDAAMAFKGPAIVNIKIAATADRKPQQFNWHG
- glycerate productivity compared to other HACS variants [1]: more than 2 fold
- Kcat, app/Km, app [3]: 650 M⁻¹ s⁻¹
- improvement in glycolate productivity [4]: more than 3 fold
- Kcat, app/Km, app [7]: 12.3 M⁻¹ s⁻¹
- Kcat, app/Km, app [5]: 55000 M⁻¹ s⁻¹
- Kcat, app/Km, app [6]: 78000 M⁻¹ s⁻¹
